Test results reported in PubChem BioAssay AID720641 (ICCB-Longwood Screening Facility, Harvard Medical School, 2013).
The other results are listed elsewhere or left out.

Experiment: Staphylococcus aureus RN4220 growth blockers – two temperatures, LtaS inhibitor project, primary screen (AID 720641)
Conditions: S. aureus RN4220 growth, OD600, 20 h, 42 °C; measured here: growth at 30 °C; stronger effect = lower value

| Compound | relative growth |
| --- | --- |
| CN(CCCl)CCCl | 86.4% |
